The target of the test is zebrafish IGFBP-1b (zebrafish) (UniProt A4K8J2). Nature of the test: far-Western, overlay or dot blot; western ligand blotting: 0.3 ug purified IGFBP-1a or -1b on SDS-PAGE under non-reducing condition, blotted and probed with DIG-labeled IGF-1; both purified.

Sequences of proteins named here, by UniProt entry; tags and fusion partners are left off. A change or cut given only in a name is not applied to a line headed by its entry. Residues count along the entry.
UniProt A4K8J2: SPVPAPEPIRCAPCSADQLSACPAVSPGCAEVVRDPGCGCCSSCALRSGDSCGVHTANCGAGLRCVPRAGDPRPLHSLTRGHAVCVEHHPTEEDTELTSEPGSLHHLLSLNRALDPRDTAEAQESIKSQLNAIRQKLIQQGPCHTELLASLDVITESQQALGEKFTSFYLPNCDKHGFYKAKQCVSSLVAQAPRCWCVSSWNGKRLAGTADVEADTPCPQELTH
UniProt P05019, residues 49-118: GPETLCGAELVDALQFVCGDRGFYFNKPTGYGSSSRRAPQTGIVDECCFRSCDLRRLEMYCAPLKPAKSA

No constants are given. Whether binding was seen depends on the method and setting. Binding can be weak; no strength is given.

Turning to “DIG-labeled IGF-1 (from UniProt P05019 49-118) (ligand)”, the binding entry is “binds”.

Source of the values: publication PMC2518108.
